Measured values as given in PMC8384837.
Substitutions are numbered along the chain they refer to. This is one part of the list. For part of these data: At the low end of the ranking the order means little.

Experiments:
Details in all cases: yeast three-hybrid, YBZ-1, SC-Leu-His + 0.5 mM 3-AT, 4 days
[1] = target: T1, PUM1 PUF domain R5-AAD C1007A + R1008A + Q1011D (UniProt Q14671)
T1 sequence: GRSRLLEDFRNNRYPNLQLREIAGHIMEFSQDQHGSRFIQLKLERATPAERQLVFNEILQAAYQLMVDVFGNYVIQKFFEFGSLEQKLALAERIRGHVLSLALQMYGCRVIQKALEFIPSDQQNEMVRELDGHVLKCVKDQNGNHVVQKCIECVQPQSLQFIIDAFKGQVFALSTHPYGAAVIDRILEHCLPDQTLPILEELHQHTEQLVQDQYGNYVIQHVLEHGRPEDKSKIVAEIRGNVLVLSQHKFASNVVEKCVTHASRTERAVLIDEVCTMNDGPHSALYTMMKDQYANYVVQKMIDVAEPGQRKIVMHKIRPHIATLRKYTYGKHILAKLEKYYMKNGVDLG

[2] = target: T2, PUM1 PUF domain R5-AFF C1007A + R1008F + Q1011F (UniProt Q14671)
T2 sequence: T1 sequence with A181F, D184F

[3] = target: T3, PUM1 PUF domain R5-AFY C1007A + R1008F + Q1011Y (UniProt Q14671)
T3 sequence: T1 sequence with A181F, D184Y

[4] = target: T4, PUM1 PUF domain R5-AGD C1007A + R1008G + Q1011D (UniProt Q14671)
T4 sequence: T1 sequence with A181G

[5] = target: T5, PUM1 PUF domain R5-AYF C1007A + R1008Y + Q1011F (UniProt Q14671)
T5 sequence: T1 sequence with A181Y, D184F

[6] = target: T6, PUM1 PUF domain R5-AYY C1007A + R1008Y + Q1011Y (UniProt Q14671)
T6 sequence: T1 sequence with A181Y, D184Y

[7] = target: T7, PUM1 PUF domain R5-DFL C1007D + R1008F + Q1011L (Homo sapiens) (UniProt Q14671)
T7 sequence: T1 sequence with A180D, A181F, D184L

[8] = target: T8, PUM1 PUF domain R5-DFP C1007D + R1008F + Q1011P (UniProt Q14671)
T8 sequence: T1 sequence with A180D, A181F, D184P

[9] = target: T9, PUM1 PUF domain R5-DGA C1007D + R1008G + Q1011A (UniProt Q14671)
T9 sequence: T1 sequence with A180D, A181G, D184A

[10] = target: T10, PUM1 PUF domain R5-DHG C1007D + R1008H + Q1011G (Homo sapiens) (UniProt Q14671)
T10 sequence: T1 sequence with A180D, A181H, D184G

[11] = target: T11, PUM1 PUF domain R5-DHW C1007D + R1008H + Q1011W (UniProt Q14671)
T11 sequence: T1 sequence with A180D, A181H, D184W

[12] = target: T12, PUM1 PUF domain R5-DQE C1007D + R1008Q + Q1011E (UniProt Q14671)
T12 sequence: T1 sequence with A180D, A181Q, D184E

[13] = target: T13, PUM1 PUF domain R5-DRD C1007D + Q1011D (Homo sapiens) (UniProt Q14671)
T13 sequence: T1 sequence with A180D, A181R

[14] = target: T14, PUM1 PUF domain R5-DRL C1007D + Q1011L (Homo sapiens) (UniProt Q14671)
T14 sequence: T1 sequence with A180D, A181R, D184L

[15] = target: T15, PUM1 PUF domain R5-DWW C1007D + R1008W + Q1011W (Homo sapiens) (UniProt Q14671)
T15 sequence: T1 sequence with A180D, A181W, D184W

[16] = target: T16, PUM1 PUF domain R5-DYF C1007D + R1008Y + Q1011F (UniProt Q14671)
T16 sequence: T1 sequence with A180D, A181Y, D184F

[17] = target: T17, PUM1 PUF domain R5-EAC C1007E + R1008A + Q1011C (Homo sapiens) (UniProt Q14671)
T17 sequence: T1 sequence with A180E, D184C

[18] = target: T18, PUM1 PUF domain R5-EAE C1007E + R1008A + Q1011E (UniProt Q14671)
T18 sequence: T1 sequence with A180E, D184E

[19] = target: T19, PUM1 PUF domain R5-EFD C1007E + R1008F + Q1011D (UniProt Q14671)
T19 sequence: T1 sequence with A180E, A181F

[20] = target: T20, PUM1 PUF domain R5-EGE C1007E + R1008G + Q1011E (UniProt Q14671)
T20 sequence: T1 sequence with A180E, A181G, D184E

[21] = target: T21, PUM1 PUF domain R5-ERK C1007E + Q1011K (Homo sapiens) (UniProt Q14671)
T21 sequence: T1 sequence with A180E, A181R, D184K

[22] = target: T22, PUM1 PUF domain R5-ESE C1007E + R1008S + Q1011E (Homo sapiens) (UniProt Q14671)
T22 sequence: T1 sequence with A180E, A181S, D184E

[23] = target: T23, PUM1 PUF domain R5-EVC C1007E + R1008V + Q1011C (Homo sapiens) (UniProt Q14671)
T23 sequence: T1 sequence with A180E, A181V, D184C

[24] = target: T24, PUM1 PUF domain R5-FFV C1007F + R1008F + Q1011V (UniProt Q14671)
T24 sequence: T1 sequence with A180F, A181F, D184V

[25] = target: T25, PUM1 PUF domain R5-FHI C1007F + R1008H + Q1011I (Homo sapiens) (UniProt Q14671)
T25 sequence: T1 sequence with A180F, A181H, D184I

[26] = target: T26, PUM1 PUF domain R5-FNG C1007F + R1008N + Q1011G (Homo sapiens) (UniProt Q14671)
T26 sequence: T1 sequence with A180F, A181N, D184G

[27] = target: T27, PUM1 PUF domain R5-FNS C1007F + R1008N + Q1011S (UniProt Q14671)
T27 sequence: T1 sequence with A180F, A181N, D184S

[28] = target: T28, PUM1 PUF domain R5-GFL C1007G + R1008F + Q1011L (UniProt Q14671)
T28 sequence: T1 sequence with A180G, A181F, D184L

[29] = target: T29, PUM1 PUF domain R5-GFY C1007G + R1008F + Q1011Y (UniProt Q14671)
T29 sequence: T1 sequence with A180G, A181F, D184Y

[30] = target: T30, PUM1 PUF domain R5-GGE C1007G + R1008G + Q1011E (UniProt Q14671)
T30 sequence: T1 sequence with A180G, A181G, D184E

[31] = target: T31, PUM1 PUF domain R5-GHA C1007G + R1008H + Q1011A (Homo sapiens) (UniProt Q14671)
T31 sequence: T1 sequence with A180G, A181H, D184A

[32] = target: T32, PUM1 PUF domain R5-GHL C1007G + R1008H + Q1011L (Homo sapiens) (UniProt Q14671)
T32 sequence: T1 sequence with A180G, A181H, D184L

[33] = target: T33, PUM1 PUF domain R5-GKH C1007G + R1008K + Q1011H (Homo sapiens) (UniProt Q14671)
T33 sequence: T1 sequence with A180G, A181K, D184H

[34] = target: T34, PUM1 PUF domain R5-GLW C1007G + R1008L + Q1011W (UniProt Q14671)
T34 sequence: T1 sequence with A180G, A181L, D184W

[35] = target: T35, PUM1 PUF domain R5-GNW C1007G + R1008N + Q1011W (UniProt Q14671)
T35 sequence: T1 sequence with A180G, A181N, D184W

[36] = target: T36, PUM1 PUF domain R5-GQA C1007G + R1008Q + Q1011A (UniProt Q14671)
T36 sequence: T1 sequence with A180G, A181Q, D184A

[37] = target: T37, PUM1 PUF domain R5-GQS C1007G + R1008Q + Q1011S (UniProt Q14671)
T37 sequence: T1 sequence with A180G, A181Q, D184S

[38] = target: T38, PUM1 PUF domain R5-GQW C1007G + R1008Q + Q1011W (UniProt Q14671)
T38 sequence: T1 sequence with A180G, A181Q, D184W

[39] = target: T39, PUM1 PUF domain R5-GRA C1007G + Q1011A (Homo sapiens) (UniProt Q14671)
T39 sequence: T1 sequence with A180G, A181R, D184A

GGCUAGAACUAGUGGAUCCCCCGGCGCCCGGCGGCUCGAGCCCGGGUAAGUGUCAAUAGUCUGCAUGCCGCCGGGCGCCAUGCCUGCAGGUCGACUCUAGAAAACAUG
binding signal (log2 enrichment (interaction score)) [1]: < -5.66
binding signal (log2 enrichment (interaction score)) [2]: < -6.52
binding signal (log2 enrichment (interaction score)) [3]: < -7.32
binding signal (log2 enrichment (interaction score)) [4]: < -6.28
binding signal (log2 enrichment (interaction score)) [5]: < -7.19
binding signal (log2 enrichment (interaction score)) [6]: < -5.9
binding signal (log2 enrichment (interaction score)) [7]: -1.22
binding signal (log2 enrichment (interaction score)) [8]: < -6.79
binding signal (log2 enrichment (interaction score)) [9]: < -8.11
binding signal (log2 enrichment (interaction score)) [10]: 0.49
binding signal (log2 enrichment (interaction score)) [11]: < -7.62
binding signal (log2 enrichment (interaction score)) [12]: < -7.13
binding signal (log2 enrichment (interaction score)) [13]: -0.33
binding signal (log2 enrichment (interaction score)) [14]: -1.06
binding signal (log2 enrichment (interaction score)) [15]: -3.75
binding signal (log2 enrichment (interaction score)) [16]: -8.25
binding signal (log2 enrichment (interaction score)) [17]: -3.15
binding signal (log2 enrichment (interaction score)) [18]: < -6.03
binding signal (log2 enrichment (interaction score)) [19]: < -5.64
binding signal (log2 enrichment (interaction score)) [20]: < -6.14
binding signal (log2 enrichment (interaction score)) [21]: 0.27
binding signal (log2 enrichment (interaction score)) [22]: -1.43
binding signal (log2 enrichment (interaction score)) [23]: -0.4
binding signal (log2 enrichment (interaction score)) [24]: -3.77
binding signal (log2 enrichment (interaction score)) [25]: 0.35
binding signal (log2 enrichment (interaction score)) [26]: -3.8
binding signal (log2 enrichment (interaction score)) [27]: -4.54
binding signal (log2 enrichment (interaction score)) [28]: < -5.58
binding signal (log2 enrichment (interaction score)) [29]: -2.63
binding signal (log2 enrichment (interaction score)) [30]: -4.3
binding signal (log2 enrichment (interaction score)) [31]: -1.19
binding signal (log2 enrichment (interaction score)) [32]: 0.36
binding signal (log2 enrichment (interaction score)) [33]: 0.2
binding signal (log2 enrichment (interaction score)) [34]: < -6.58
binding signal (log2 enrichment (interaction score)) [35]: < -6.54
binding signal (log2 enrichment (interaction score)) [36]: -3.16
binding signal (log2 enrichment (interaction score)) [37]: -2.59
binding signal (log2 enrichment (interaction score)) [38]: < -6.28
binding signal (log2 enrichment (interaction score)) [39]: -1.55
